The list shows a part of the results. These are raw signals, not scaled to a control.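 In the initial screen, polymyxin B was used at a concentration that permeabilizes Salmonella's outer membrane but not its inner membrane. Maximum growth was set by DMSO wells with or without polymyxin B. Since plates varied, data were ranked per plate, and compounds giving the lowest OD600 advanced as hits.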
System: Salmonella enterica serovar Typhimurium SL1344
Test: bacterial growth OD600 after 18 h with compound and polymyxin B; higher = more bacterial growth (less inhibition)
Details: 50 µM, Mueller-Hinton broth

Structure (SMILES)	bacterial growth OD600 (polymyxin B 1 µg/mL)	bacterial growth OD600 (polymyxin B 0.75 µg/mL)
CC1CCCN(Cc2cnc(S(C)(=O)=O)n2Cc2ccccc2F)C1 (centres undefined)	1.18	
CCN(CC1CCCO1)C(=O)c1csc2nc(-c3ccc(Cl)cc3)cn12 (centres undefined)	1.17	
CCOC(=O)C1(CC2CCCCO2)CCN(C(=O)COc2ccc(Cl)cc2)CC1 (centres undefined)	1.03	
CCN1CC(CN(C)Cc2nc(-c3ccccn3)no2)CC1=O (centres undefined)	0.881	
COCCC(=O)N1CCCC(CCc2ccccc2)C1 (centres undefined)		0.843
O=C1CCCN1CC(=O)N1CCC(C2CCN(Cc3cccc(F)c3F)CC2)C1 (centres undefined)		0.846
COCC(=O)N1CCCC(CCc2c(F)cccc2F)C1 (centres undefined)		0.789
COC(C(=O)NCc1nc(-c2ccccc2NC(=O)CC2CCCC2)oc1C)c1ccccc1 (centres undefined)		0.009
COCCCN1C(=O)CC(CC(=O)N2CCN(C)C(c3ccccc3)C2)(c2ccccc2OC)C1=O (centres undefined)		0.717
